Laboratory results: PubChem BioAssay AID1259405 (NCATS, 2018)
Here is a random part of about 50,000 reagents tested. About 4,000 of all reagents (8%) were called active. 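Mouse siRNA library applied to hamster cells; one well for each siRNA.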 The numbers tell different reagents against one gene apart.

Screen: 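Silenced genes that increase secreted GFP made by CHO cells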 (primary screen)
Cell system: Chinese hamster CHO-K1 ovary cells with stable secreted eGFP expression
Reagent: single siRNA against mouse genes, 0.8 pmol siRNA per well (2 µl of 400 nM stock)
Duration: 3 days
Measurement: 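Per-well intracellular GFP measured by laser scanning cytometry, plus viability from ATP luminescence, each relative to plate median of non-targeting control wells, in %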
Reading the numbers: GFP, % of control: higher = more GFP per well, higher productivity; viability (ATP), % of control: higher = more viable cells (more ATP)
Rule for the call: 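Called active when intracellular GFP, relative to negative control, is at or above 120%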

| gene symbol | siRNA no. | GFP, % of control | viability (ATP), % of control | activity call |
| --- | --- | --- | --- | --- |
| Kcnf1 (GeneID 382571) | 1 | 62.5 | 52.8 | inactive |
| Kcnf1 (GeneID 382571) | 2 | 59.7 | 79.5 | inactive |
| Kcnf1 (GeneID 382571) | 3 | 49.5 | 72.1 | inactive |
| Or5m3b (GeneID 258571) | 1 | 88.8 | 73.3 | inactive |
| Or5m3b (GeneID 258571) | 2 | 69.5 | 81.4 | inactive |
| Or5m3b (GeneID 258571) | 3 | 52.3 | 34.5 | inactive |
| Unc13d (GeneID 70450) | 1 | 116 | 52.1 | inactive |
| Unc13d (GeneID 70450) | 2 | 74.9 | 39.1 | inactive |
| Unc13d (GeneID 70450) | 3 | 102 | 93 | inactive |
| Cfap251 (GeneID 269701) | 1 | 83.2 | 71.9 | inactive |
| Cfap251 (GeneID 269701) | 2 | 89.2 | 99.5 | inactive |
| Cfap251 (GeneID 269701) | 3 | 87.4 | 86.9 | inactive |
| Naip2 (GeneID 17948) | 1 | 106 | 60.2 | inactive |
| Naip2 (GeneID 17948) | 2 | 80.1 | 83.7 | inactive |
| Naip2 (GeneID 17948) | 3 | 87.6 | 97.9 | inactive |
| Slc5a11 (GeneID 233836) | 1 | 71.4 | 66.8 | inactive |
| Slc5a11 (GeneID 233836) | 2 | 119 | 94.7 | inactive |
| Slc5a11 (GeneID 233836) | 3 | 55.5 | 63.4 | inactive |
| P4ha2 (GeneID 18452) | 1 | 90.2 | 108 | inactive |
| P4ha2 (GeneID 18452) | 2 | 79.4 | 110 | inactive |
| P4ha2 (GeneID 18452) | 3 | 96 | 82.2 | inactive |
| Ins1 (GeneID 16333) | 1 | 66.8 | 61.3 | inactive |
| Ins1 (GeneID 16333) | 2 | 93.8 | 47.9 | inactive |
| Ins1 (GeneID 16333) | 3 | 47.3 | 52.1 | inactive |
| Anxa2 (GeneID 12306) | 1 | 102 | 80.2 | inactive |
| Anxa2 (GeneID 12306) | 2 | 82.7 | 60.4 | inactive |
| Anxa2 (GeneID 12306) | 3 | 67.5 | 77.3 | inactive |
| Atxn7l1 (GeneID 380753) | 1 | 71.5 | 75.3 | inactive |
| Atxn7l1 (GeneID 380753) | 2 | 38.4 | 63.8 | inactive |
| Atxn7l1 (GeneID 380753) | 3 | 71.3 | 84.4 | inactive |
| Atxn7l1 (GeneID 380753) | 4 | 67.6 | 62.2 | inactive |
| Atxn7l1 (GeneID 380753) | 5 | 82.7 | 80.7 | inactive |
| Atxn7l1 (GeneID 380753) | 6 | 72.1 | 42.4 | inactive |
| Slc27a1 (GeneID 26457) | 1 | 110 | 58.1 | inactive |
| Slc27a1 (GeneID 26457) | 2 | 84.4 | 79.4 | inactive |
| Slc27a1 (GeneID 26457) | 3 | 86.7 | 124 | inactive |
| Suclg1 (GeneID 56451) | 1 | 71.9 | 72.5 | inactive |
| Suclg1 (GeneID 56451) | 2 | 81 | 62.7 | inactive |
| Anxa1 (GeneID 16952) | 1 | 68.9 | 66.5 | inactive |
| Anxa1 (GeneID 16952) | 2 | 113 | 119 | inactive |
| Anxa1 (GeneID 16952) | 3 | 194 | 74.8 | active |
| Mterf4 (GeneID 69821) | 1 | 98.8 | 80.8 | inactive |
| Mterf4 (GeneID 69821) | 2 | 50 | 73.4 | inactive |
| Mterf4 (GeneID 69821) | 3 | 135 | 112 | active |
| Aqp8 (GeneID 11833) | 1 | 76.1 | 73.3 | inactive |
| Aqp8 (GeneID 11833) | 2 | 53.2 | 41 | inactive |
| Aqp8 (GeneID 11833) | 3 | 66.5 | 75 | inactive |
| Ankrd55 (GeneID 77318) | 1 | 59.1 | 55.6 | inactive |
| Ankrd55 (GeneID 77318) | 2 | 73.3 | 79.6 | inactive |
| Ankrd55 (GeneID 77318) | 3 | 88.9 | 110 | inactive |
| Irf4 (GeneID 16364) | 1 | 72.7 | 70 | inactive |
| Irf4 (GeneID 16364) | 2 | 65.6 | 67.5 | inactive |
| Irf4 (GeneID 16364) | 3 | 63.4 | 82.1 | inactive |
| Plxnb1 (GeneID 235611) | 1 | 63.2 | 58.3 | inactive |
| Plxnb1 (GeneID 235611) | 2 | 83.7 | 81.1 | inactive |
| Plxnb1 (GeneID 235611) | 3 | 96.3 | 87.5 | inactive |
| Dynlt4 (GeneID 242646) | 1 | 45.5 | 66.4 | inactive |
| Dynlt4 (GeneID 242646) | 2 | 71.3 | 83.1 | inactive |
| Dynlt4 (GeneID 242646) | 3 | 85.3 | 79.8 | inactive |
| Stac (GeneID 20840) | 1 | 94.8 | 75.5 | inactive |
| Stac (GeneID 20840) | 2 | 76.2 | 80.9 | inactive |
| Stac (GeneID 20840) | 3 | 69.8 | 78.6 | inactive |
| Zfp771 (GeneID 244216) | 1 | 30.7 | 34.5 | inactive |
| Zfp771 (GeneID 244216) | 2 | 46.4 | 77.7 | inactive |
| Zfp771 (GeneID 244216) | 3 | 84 | 92.2 | inactive |
| Drosha (GeneID 14000) | 1 | 117 | 94.9 | inactive |
| Drosha (GeneID 14000) | 2 | 99.3 | 85.1 | inactive |
| Drosha (GeneID 14000) | 3 | 70.8 | 77.5 | inactive |
| Cd68 (GeneID 12514) | 1 | 86.3 | 75.7 | inactive |
| Cd68 (GeneID 12514) | 2 | 53.2 | 55.7 | inactive |
| Cd68 (GeneID 12514) | 3 | 67.8 | 77.6 | inactive |
| Sfxn3 (GeneID 94280) | 1 | 81.2 | 78.8 | inactive |
| Sfxn3 (GeneID 94280) | 2 | 61.9 | 81.6 | inactive |
| Sfxn3 (GeneID 94280) | 3 | 33.4 | 44.7 | inactive |
| Mthfsd (GeneID 234814) | 1 | 71 | 112 | inactive |
| Mthfsd (GeneID 234814) | 2 | 55.3 | 80.1 | inactive |
| Mthfsd (GeneID 234814) | 3 | 25.3 | 58.2 | inactive |
| Abca15 (GeneID 320631) | 1 | 81.7 | 93.3 | inactive |
| Abca15 (GeneID 320631) | 2 | 71.1 | 75.9 | inactive |
| Abca15 (GeneID 320631) | 3 | 88.8 | 61 | inactive |
| Cep97 (GeneID 74201) | 1 | 49.7 | 85.2 | inactive |
| Cep97 (GeneID 74201) | 2 | 77.9 | 68.5 | inactive |
| Cep97 (GeneID 74201) | 3 | 73.2 | 67.3 | inactive |
| Gnptg (GeneID 214505) | 1 | 110 | 107 | inactive |
| Gnptg (GeneID 214505) | 2 | 95.3 | 124 | inactive |
| Gnptg (GeneID 214505) | 3 | 135 | 109 | active |
| Me1 (GeneID 17436) | 1 | 81.5 | 75.2 | inactive |
| Me1 (GeneID 17436) | 2 | 89.3 | 86.4 | inactive |
| Me1 (GeneID 17436) | 3 | 70.2 | 70.6 | inactive |
| Kcnv2 (GeneID 240595) | 1 | 71.9 | 91.4 | inactive |
| Kcnv2 (GeneID 240595) | 2 | 92.2 | 102 | inactive |
| Kcnv2 (GeneID 240595) | 3 | 84.2 | 69.3 | inactive |
| Efcc1 (GeneID 58229) | 1 | 72.9 | 79.5 | inactive |
| Efcc1 (GeneID 58229) | 2 | 59.7 | 70.2 | inactive |
| Efcc1 (GeneID 58229) | 3 | 77.1 | 68.7 | inactive |
| Chrd (GeneID 12667) | 1 | 59.4 | 45.9 | inactive |
| Chrd (GeneID 12667) | 2 | 43.2 | 65.1 | inactive |
| Chrd (GeneID 12667) | 3 | 112 | 49.4 | inactive |
| Smg8 (GeneID 74133) | 1 | 101 | 109 | inactive |
| Smg8 (GeneID 74133) | 2 | 85.1 | 92.1 | inactive |
| Smg8 (GeneID 74133) | 3 | 128 | 101 | active |
| Lingo2 (GeneID 242384) | 1 | 72 | 61.3 | inactive |
| Lingo2 (GeneID 242384) | 2 | 90.8 | 62.4 | inactive |
| Lingo2 (GeneID 242384) | 3 | 80.9 | 71.2 | inactive |
| Cypt3 (GeneID 69361) | 1 | 99.2 | 96.3 | inactive |
| Cypt3 (GeneID 69361) | 2 | 94.5 | 73 | inactive |
| Cypt3 (GeneID 69361) | 3 | 103 | 110 | inactive |

Laid out differently: entries from further up.
Dynlt4 (GeneID 242646) #1
- GFP, % of control: 45.5
- viability (ATP), % of control: 66.4
- activity call: inactive

Dynlt4 (GeneID 242646) #2
- GFP, % of control: 71.3
- viability (ATP), % of control: 83.1
- activity call: inactive

Dynlt4 (GeneID 242646) #3
- GFP, % of control: 85.3
- viability (ATP), % of control: 79.8
- activity call: inactive

Stac (GeneID 20840) #1
- GFP, % of control: 94.8
- viability (ATP), % of control: 75.5
- activity call: inactive

Stac (GeneID 20840) #2
- GFP, % of control: 76.2
- viability (ATP), % of control: 80.9
- activity call: inactive

Stac (GeneID 20840) #3
- GFP, % of control: 69.8
- viability (ATP), % of control: 78.6
- activity call: inactive

Zfp771 (GeneID 244216) #1
- GFP, % of control: 30.7
- viability (ATP), % of control: 34.5
- activity call: inactive

Zfp771 (GeneID 244216) #2
- GFP, % of control: 46.4
- viability (ATP), % of control: 77.7
- activity call: inactive

Zfp771 (GeneID 244216) #3
- GFP, % of control: 84
- viability (ATP), % of control: 92.2
- activity call: inactive

Drosha (GeneID 14000) #1
- GFP, % of control: 117
- viability (ATP), % of control: 94.9
- activity call: inactive

Drosha (GeneID 14000) #2
- GFP, % of control: 99.3
- viability (ATP), % of control: 85.1
- activity call: inactive
